# PubChem BioAssay AID1053208 – Peter MacCallum Cancer Centre | 2014
# Aim: 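Synthetic lethal interactions between gene loss and doxorubicin in osteosarcoma cells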 (primary screen)
# Cell system: mouse osteosarcoma cells, early-passage culture from an engineered mouse model of fibroblastic bone tumour
# Reagent: siRNA pool against mouse genes, 40 nM
# Timing: about 120 h (48 h before drug, then 72 h with drug)
# Challenge: doxorubicin 100 nM for 72 h, roughly 30-40% inhibitory dose
# Read-out: 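Viability read as ATP luminescence after 72 h of 100 nM doxorubicin or none, duplicate wells averaged, scaled to non-targeting siRNA, then expressed as robust z-scores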
# Direction: viability z-score with doxorubicin and doxorubicin viability vs non-targeting: higher = more viable cells under doxorubicin; viability z-score without drug: higher = more viable cells with knock-down alone; z-score of drug to no-drug ratio: higher = less drug sensitisation by knock-down
# Hit rule: 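a pool counts as active when its viability z-score with doxorubicin is -2 or below and its z-score without drug lies between -2 and 2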
# Here is an unselected part of about 17,000 reagents. 788 of them (4.7%) were called active. 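Calls rest on z-score classes alone; an extra cut-off of viability at most 70% of control was not applied to them.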 Reagent sequences are not shown.
target gene,combined z-score class,viability z-score with doxorubicin,viability z-score without drug,z-score of drug to no-drug ratio,doxorubicin viability vs non-targeting,outcome
Or6c88,no change with or without drug,0.45,-1.35,1.69,0.98,inactive
Glt28d2,no change with or without drug,1.35,1.01,0.79,1.06,inactive
Eaf1,no change with or without drug,0.22,1.18,-0.45,0.96,inactive
Trappc12,no change with or without drug,-0.22,0.34,-0.34,0.92,inactive
Nrip3,no change with or without drug,-0.45,-0.51,0,0.9,inactive
Hnrnpdl,no change with or without drug,0.22,-0.34,0.56,0.96,inactive
Dll4,no change with or without drug,0.22,0.17,0.22,0.96,inactive
Diaph1,high cell count with doxorubicin only,2.02,-0.51,2.7,1.12,inactive
Zfp758,no change with or without drug,0.34,0.17,0.34,0.97,inactive
Wnk1,no change with or without drug,1.12,-0.84,2.02,1.04,inactive

Entries above whose target name starts with D or d:
target gene,combined z-score class,viability z-score with doxorubicin,viability z-score without drug,z-score of drug to no-drug ratio,doxorubicin viability vs non-targeting,outcome
Dll4,no change with or without drug,0.22,0.17,0.22,0.96,inactive
Diaph1,high cell count with doxorubicin only,2.02,-0.51,2.7,1.12,inactive

The list goes on.
target gene,combined z-score class,viability z-score with doxorubicin,viability z-score without drug,z-score of drug to no-drug ratio,doxorubicin viability vs non-targeting,outcome
Cfap61,high cell count without drug only,-0.45,2.36,-1.69,0.9,inactive
Zrsr2,no change with or without drug,-1.12,-1.69,0.11,0.84,inactive
Hcar2,no change with or without drug,0.45,0,0.56,0.98,inactive
Rai1,no change with or without drug,-1.24,-0.51,-0.9,0.83,inactive
Svs5,no change with or without drug,0.67,-0.17,0.9,1,inactive
Sugp1,no change with or without drug,0.67,1.18,0,1,inactive
Laptm5,no change with or without drug,0.45,1.52,-0.45,0.98,inactive
G6pdx,no change with or without drug,-0.22,0.17,-0.22,0.92,inactive
Crlf2,no change with or without drug,0,0.67,-0.34,0.94,inactive
Acan,high cell count with doxorubicin only,3.04,-0.34,3.6,1.21,inactive
